From patent publication US20240424071A1, “NOVEL MUTANT OF RECOMBINANT GANODERMA LUCIDUM IMMUNOMODULATORY PROTEIN AND USE THEREOF” (CHANGCHUN INTELLICROWN PHARMACEUTICAL CO., LTD., priority 2021, published 2024)

How the values were obtained:
[1] = tested on: CR5043B organoid; assay: PDXO organoid growth inhibition (CTG 3D), colorectal cancer CR5043B; format: cell-based
Description: (§1) • a) 20 μl of 100× Dispase solution was added in to a 6-well plate (containing 2 mL of organism culture medium), and organoid was collected from each well. b) The 6-well plate was returned into the incubator and cultured at 37° C. for 30 min. c) The organoid was collected from the 6-well plate, and transferred by a pre-wetted 100 μm filter into a 50 mL plastic tube. d) Once all the wells were filtered by 100 μm filter, the flow was filtered by a pre-wetting 20 μm filter. e) The 20 μm filter was inverted, and the organoid was collected in a new 50 mL tube. f) The organoid was collected and re-suspended in the corresponding culture medium. The organoid was calculated for their concentrations. g) The cell concentration was adjusted with the medium to an appropriate concentration. h) Matrigel was added to a final concentration of 5% v/v, and the organoid was suspended on ice. i) 40 μL of cell suspension was added with a Multidrop dispenser into a 384-well plate. […]
(§2) 40 μL of CTG 3D was added into each well by a Multidrop dispenser; the content was mixed on a plate oscillator for 5 min; and then the place was incubated at room temperature in dark for 30 min. The luminous signal was read on an Envision plate reader. […]

[2] = tested on: LI6669B organoid; assay: PDXO organoid growth inhibition (CTG 3D), liver cancer LI6669B; format: cell-based, human; conditions: EGFR wild-type
Description: as §1, §2

[3] = tested on: CR20035B organoid; assay: PDXO organoid growth inhibition (CTG 3D), colorectal cancer CR20035B; format: cell-based; conditions: EGFR wild-type, read Day 5
Description: as §1, §2

[4] = tested on: GA2434B organoid; assay: PDXO organoid growth inhibition (CTG 3D), gastric cancer GA2434B; format: cell-based
Description: as §1, §2

[5] = tested on: LU5162B organoid; assay: PDXO organoid growth inhibition (CTG 3D), lung cancer LU5162B; format: cell-based
Description: as §1, §2

[6] = tested on: CR3099B organoid; assay: PDXO organoid growth inhibition (CTG 3D), colorectal cancer CR3099B; format: cell-based
Description: as §1, §2

[7] = tested on: LU11624B organoid; assay: PDXO organoid growth inhibition (CTG 3D), lung cancer LU11624B; format: cell-based
Description: as §1, §2

[8] = tested on: LI6677B organoid; assay: PDXO organoid growth inhibition (CTG 3D), liver cancer LI6677B; format: cell-based; conditions: EGFR wild-type
Description: as §1, §2

[9] = tested on: GA6833B organoid; assay: PDXO organoid growth inhibition (CTG 3D), gastric cancer GA6833B; format: cell-based; conditions: EGFR wild-type
Description: as §1, §2

[10] = tested on: PA20078B organoid; assay: PDXO organoid growth inhibition (CTG 3D), pancreatic cancer PA20078B; format: cell-based; conditions: EGFR wild-type
Description: as §1, §2

[11] = tested on: CR5082B organoid; assay: PDXO organoid growth inhibition (CTG 3D), colorectal cancer CR5082B; format: cell-based
Description: as §1, §2

[12] = tested on: LU1235B organoid; assay: PDXO organoid growth inhibition (CTG 3D), lung cancer LU1235B; format: cell-based; conditions: EGFR wild-type
Description: as §1, §2

[13] = tested on: PA0787B organoid; assay: PDXO organoid growth inhibition (CTG 3D), pancreatic cancer PA0787B; format: cell-based
Description: as §1, §2

CN[C@@H]1C[C@H]2O[C@@](C)([C@@H]1OC)n1c3ccccc3c3c4c(c5c6ccccc6n2c5c31)C(=O)NC4 [Staurosporine, reference compound]
Maximum Inhibition Rate (%) [1]: 100.00% | Maximum Inhibition Rate (%) [2]: 100.07% | Maximum Inhibition Rate (%) [3]: 100.04% | Maximum Inhibition Rate (%) [4]: 99.98% | Maximum Inhibition Rate (%) [5]: 100.03% | Maximum Inhibition Rate (%) [6]: 100.64% | Maximum Inhibition Rate (%) [7]: 100.05% | Maximum Inhibition Rate (%) [8]: 100.10% | Maximum Inhibition Rate (%) [9]: 100.01% | Maximum Inhibition Rate (%) [10]: 100.72% | Maximum Inhibition Rate (%) [11]: 99.98% | Maximum Inhibition Rate (%) [12]: 100.13% | Maximum Inhibition Rate (%) [13]: 100.06%
